The amount applied is not stated for every result.
Assay: Taste-testing by four subjects (bitterness, saltiness, mouth/throat burn)
Type: in vivo
Conditions: average of four subjects; scale 0-10

## CC(C)Cc1ccc(C(C)C(=O)O)cc1.[Na] (stereo not drawn) [Pure API, sodium ibuprofen]
  Bitterness, Average: 3.75
  Mouth/Throat Burn, Average: 8
  Saltiness, Average: 4
